Data as given in PubChem BioAssay AID1224826 (NIAID, 2016).
The whole screen tested about 17,000 reagents; below is a random part of them. In the full data, about 1,110 (6.6%) were called active. 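Active means lowered or raised reporter signal; replicate intensities are raw and not normalised per plate.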 Further read-outs or replicates are left out here.

- Purpose: 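Genes that change LPS-induced Tnf promoter activity in mouse macrophages when knocked down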 (primary screen)
- Cells: RAW264.7 G9 macrophages from mouse bearing reporters for p65 (GFP) and the Tnf promoter (mCherry)
- Reagents: siRNA pool against mouse genes, 100 nM
- Duration: 16 h of LPS stimulation, after 2 days of siRNA transfection
- Treatment: bacterial lipopolysaccharide (Salmonella minnesota R595), 10 ng/ml
- Read-out: 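Nuclear mCherry signal of the Tnf promoter reporter measured by imaging after background removal, scaled to each plate median and turned into robust z-scores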
- Direction: Tnf reporter robust z-score: higher = stronger Tnf promoter reporter signal after LPS
- Rule for the call: 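a well counts as active at a score of -1.3 or below (Tlr4 knock-down control median) or above 3 (raised signal); controls and wells holding fewer than 50 cells are excluded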
- Meaning of the calls: active = Tnf reporter clearly lowered or raised; inactive = no clear change in Tnf reporter

| gene | Tnf reporter robust z-score | fewer than 50 cells in well | Outcome |
| --- | --- | --- | --- |
| Or2a57 (GeneID 18346) | 0.2 | enough cells in well | inactive |
| Chrnb3 (GeneID 108043) | 0.27 | enough cells in well | inactive |
| Parp12 (GeneID 243771) | -0.01 | enough cells in well | inactive |
| Adora2a (GeneID 11540) | -1.03 | enough cells in well | inactive |
| Slc9b2 (GeneID 97086) | -0.63 | enough cells in well | inactive |
| Vezf1 (GeneID 22344) | 0.21 | enough cells in well | inactive |
| Egr4 (GeneID 13656) | 0.64 | enough cells in well | inactive |
| Hes1 (GeneID 15205) | -0.57 | enough cells in well | inactive |
| 4930474M22Rik (GeneID 74917) | -0.27 | enough cells in well | inactive |
| Mrps15 (GeneID 66407) | 1.43 | enough cells in well | inactive |
| Faap24 (GeneID 101831) | – | fewer than 50 cells per well; well left out of calls | inactive |
| Pla2g2a (GeneID 18780) | -0.23 | enough cells in well | inactive |
| Wnt10b (GeneID 22410) | 0.19 | enough cells in well | inactive |
| Tcap (GeneID 21393) | 0.45 | enough cells in well | inactive |
| Mysm1 (GeneID 320713) | -0.78 | enough cells in well | inactive |
| Kcnq3 (GeneID 110862) | 0.97 | enough cells in well | inactive |
| Wwp1 (GeneID 107568) | – | fewer than 50 cells per well; well left out of calls | inactive |
| Wars1 (GeneID 22375) | -0.69 | enough cells in well | inactive |
| Slain2 (GeneID 75991) | -1.18 | enough cells in well | inactive |
| Bscl2 (GeneID 14705) | 0.12 | enough cells in well | inactive |
| Pdia4 (GeneID 12304) | -0.95 | enough cells in well | inactive |
| Asrgl1 (GeneID 66514) | 0.21 | enough cells in well | inactive |
| Vgll2 (GeneID 215031) | -1.27 | enough cells in well | inactive |
| Mrpl18 (GeneID 67681) | 0.14 | enough cells in well | inactive |
| Asic3 (GeneID 171209) | 1.62 | enough cells in well | inactive |
| Or4p18 (GeneID 258919) | -0.78 | enough cells in well | inactive |
| Rplp0 (GeneID 11837) | -1.66 | enough cells in well | active |
| Teddm1a (GeneID 240819) | 2.34 | enough cells in well | inactive |
| Atp13a1 (GeneID 170759) | -0.61 | enough cells in well | inactive |
| Zfp273 (GeneID 212569) | 0.21 | enough cells in well | inactive |
| Uqcrfs1 (GeneID 66694) | -0.53 | enough cells in well | inactive |
| Stk24 (GeneID 223255) | 0.39 | enough cells in well | inactive |
| Pon2 (GeneID 330260) | -1.26 | enough cells in well | inactive |
| Mrgprf (GeneID 211577) | 3.43 | enough cells in well | active |
| E2f5 (GeneID 13559) | -0.41 | enough cells in well | inactive |
| Ndufaf5 (GeneID 69487) | -0.26 | enough cells in well | inactive |
| Aggf1 (GeneID 66549) | 0.05 | enough cells in well | inactive |
| Ptprc (GeneID 19264) | 0.02 | enough cells in well | inactive |
| Vps39 (GeneID 269338) | 0.92 | enough cells in well | inactive |
| Cdpf1 (GeneID 72355) | -0.38 | enough cells in well | inactive |
| Arhgap10 (GeneID 78514) | 1.43 | enough cells in well | inactive |
| Pax5 (GeneID 18507) | -0.23 | enough cells in well | inactive |
| Eri3 (GeneID 140546) | 0.3 | enough cells in well | inactive |
| F13a1 (GeneID 74145) | 0.6 | enough cells in well | inactive |
| Irak2 (GeneID 108960) | 0.56 | enough cells in well | inactive |
| Mx1 (GeneID 17857) | -1.11 | enough cells in well | inactive |
| Dcaf17 (GeneID 75763) | -0.45 | enough cells in well | inactive |
| Or8i2 (GeneID 258763) | -0.56 | enough cells in well | inactive |
| Med22 (GeneID 20933) | -0.18 | enough cells in well | inactive |
| Mgat2 (GeneID 217664) | -0.04 | enough cells in well | inactive |
| Eif4ebp3 (GeneID 108112) | 0.54 | enough cells in well | inactive |
| Rpsa (GeneID 16785) | -1.87 | enough cells in well | active |
| Catsperb (GeneID 271036) | 2.53 | enough cells in well | inactive |
| Psmb11 (GeneID 73902) | 1.2 | enough cells in well | inactive |
| Rpap3 (GeneID 71919) | – | fewer than 50 cells per well; well left out of calls | inactive |
| Isl2 (GeneID 104360) | -0.42 | enough cells in well | inactive |
| Selenos (GeneID 109815) | 1.98 | enough cells in well | inactive |
| Slc29a3 (GeneID 71279) | – | fewer than 50 cells per well; well left out of calls | inactive |

Only “fewer than 50 cells in well” (8 entries from above):
Ndufaf5 (GeneID 69487)	enough cells in well
Aggf1 (GeneID 66549)	enough cells in well
Ptprc (GeneID 19264)	enough cells in well
Vps39 (GeneID 269338)	enough cells in well
Cdpf1 (GeneID 72355)	enough cells in well
Arhgap10 (GeneID 78514)	enough cells in well
Pax5 (GeneID 18507)	enough cells in well
Eri3 (GeneID 140546)	enough cells in well
